# Results as given in patent US20250283871A1, “COMPOSITIONS AND METHODS FOR MODULATING THE INTERACTION BETWEEN SS18-SSX FUSION ONCOPROTEIN AND NUCLEOSOMES” (Dana-Farber Cancer Institute, Inc., priority 2020, published 2025).
# B1: GBP1 (protein, UniProt P32455 1-589, looked up)
# Guanylate-binding protein 1: MASEIHMTGPMCLIENTNGRLMANPEALKILSAITQPMVVVAIVGLYRTGKSYLMNKLAGKKKGFSLGSTVQSHTKGIWMWCVPHPKKPGHILVLLDTEGLGDVEKGDNQNDSWIFALAVLLSSTFVYNSIGTINQQAMDQLYYVTELTHRIRSKSSPDENENEVEDSADFVSFFPDFVWTLRDFSLDLEADGQPLTPDEYLTYSLKLKKGTSQKDETFNLPRLCIRKFFPKKKCFVFDRPVHRRKLAQLEKLQDEELDPEFVQQVADFCSYIFSNSKTKTLSGGIQVNGPRLESLVLTYVNAISSGDLPCMENAVLALAQIENSAAVQKAIAHYEQQMGQKVQLPTETLQELLDLHRDSEREAIEVFIRSSFKDVDHLFQKELAAQLEKKRDDFCKQNQEASSDRCSALLQVIFSPLEEEVKAGIYSKPGGYRLFVQKLQDLKKKYYEEPRKGIQAEEILQTYLKSKESMTDAILQTDQTLTEKEKEIEVERVKAESAQASAKMLQEMQRKNEQMMEQKERSYQEHLKQLTEKMENDRVQLLKEQERTLALKLQEQEQLLKEGFQKESRIMKNEIQDLQTKMRRRKAC
# B2: MTCH2 (protein, UniProt Q9Y6C9 2-303, looked up)
# Mitochondrial carrier homolog …: ADAASQVLLGSGLTILSQPLMYVKVLIQVGYEPLPPTIGRNIFGRQVCQLPGLFSYAQHIASIDGRRGLFTGLTPRLCSGVLGTVVHGKVLQHYQESDKGEELGPGNVQKEVSSSFDHVIKETTREMIARSAATLITHPFHVITLRSMVQFIGRESKYCGLCDSIITIYREEGILGFFAGLVPRLLGDILSLWLCNSLAYLVNTYALDSGVSTMNEMKSYSQAVTGFFASMLTYPFVLVSNLMAVNNCGLAGGCPPYSPIYTSWIDCWCMLQKEGNMSRGNSLFFRKVPFGKTYCCDLKMLI
# B3: AZGP1 (protein, UniProt P25311 21-298, looked up)
# Zinc-alpha-2-glycoprotein: QENQDGRYSLTYIYTGLSKHVEDVPAFQALGSLNDLQFFRYNSKDRKSQPMGLWRQVEGMEDWKQDSQLQKAREDIFMETLKDIVEYYNDSNGSHVLQGRFGCEIENNRSSGAFWKYYYDGKDYIEFNKEIPAWVPFDPAAQITKQKWEAEPVYVQRAKAYLEEECPATLRKYLKYSKNILDRQDPPSVVVTSHQAPGEKKKLKCLAYDFYPGKIDVHWTRAGEVQEPELRGDVLHNGNGTYQSWVVVAVPPQDTAPYSCHVQHSSLAQPLVVPWEAS
# B4: SCAF11 (protein, UniProt Q99590 1-1463, looked up)
# Protein SCAF11: MKKKTVCTLNMGDKKYEDMEGEENGDNTISTGLLYSEADRCPICLNCLLEKEVGFPESCNHVFCMTCILKWAETLASCPIDRKPFQAVFKFSALEGYVKVQVKKQLRETKDKKNENSFEKQVSCHENSKSCIRRKAIVREDLLSAKVCDLKWIHRNSLYSETGGKKNAAIKINKPQRSNWSTNQCFRNFFSNMFSSVSHSGESSFTYRAYCTEFIEASEISALIRQKRHELELSWFPDTLPGIGRIGFIPWNVETEVLPLISSVLPRTIFPTSTISFEHFGTSCKGYALAHTQEGEEKKQTSGTSNTRGSRRKPAMTTPTRRSTRNTRAETASQSQRSPISDNSGCDAPGNSNPSLSVPSSAESEKQTRQAPKRKSVRRGRKPPLLKKKLRSSVAAPEKSSSNDSVDEETAESDTSPVLEKEHQPDVDSSNICTVQTHVENQSANCLKSCNEQIEESEKHTANYDTEERVGSSSSESCAQDLPVLVGEEGEVKKLENTGIEANVLCLESEISENILEKGGDPLEKQDQISGLSQSEVKTDVCTVHLPNDFPTCLTSESKVYQPVSCPLSDLSENVESVVNEEKITESSLVEITEHKDFTLKTEELIESPKLESSEGEIIQTVDRQSVKSPEVQLLGHVETEDVEIIATCDTFGNEDFNNIQDSENNLLKNNLLNTKLEKSLEEKNESLTEHPRSTELPKTHIEQIQKHFSEDNNEMIPMECDSFCSDQNESEVEPSVNADLKQMNENSVTHCSENNMPSSDLADEKVETVSQPSESPKDTIDKTKKPRTRRSRFHSPSTTWSPNKDTPQEKKRPQSPSPRRETGKESRKSQSPSPKNESARGRKKSRSQSPKKDIARERRQSQSRSPKRDTTRESRRSESLSPRRETSRENKRSQPRVKDSSPGEKSRSQSRERESDRDGQRRERERRTRKWSRSRSHSRSPSRCRTKSKSSSFGRIDRDSYSPRWKGRWANDGWRCPRGNDRYRKNDPEKQNENTRKEKNDIHLDADDPNSADKHRNDCPNWITEKINSGPDPRTRNPEKLKESHWEENRNENSGNSWNKNFGSGWVSNRGRGRGNRGRGTYRSSFAYKDQNENRWQNRKPLSGNSNSSGSESFKFVEQQSYKRKSEQEFSFDTPADRSGWTSASSWAVRKTLPADVQNYYSRRGRNSSGPQSGWMKQEEETSGQDSSLKDQTNQQVDGSQLPINMMQPQMNVMQQQMNAQHQPMNIFPYPVGVHAPLMNIQRNPFNIHPQLPLHLHTGVPLMQVATPTSVSQGLPPPPPPPPPSQQVNYIASQPDGKQLQGIPSSSHVSNNMSTPVLPAPTAAPGNTGMVQGPSSGNTSSSSHSKASNAAVKLAESKVSVAVEASADSSKTDKKLQIQEKAAQEVKLAIKPFYQNKDITKEEYKEIVRKAVDKVCHSKSGEVNSTKVANLVKAYVDKYKYSRKGSQKKTLEEPVSTEKNIG
# B5: REXO4 (protein, UniProt Q9GZR2 1-422, looked up)
# RNA exonuclease 4: MGKAKVPASKRAPSSPVAKPGPVKTLTRKKNKKKKRFWKSKAREVSKKPASGPGAVVRPPKAPEDFSQNWKALQEWLLKQKSQAPEKPLVISQMGSKKKPKIIQQNKKETSPQVKGEEMPAGKDQEASRGSVPSGSKMDRRAPVPRTKASGTEHNKKGTKERTNGDIVPERGDIEHKKRKAKEAAPAPPTEEDIWFDDVDPADIEAAIGPEAAKIARKQLGQSEGSVSLSLVKEQAFGGLTRALALDCEMVGVGPKGEESMAARVSIVNQYGKCVYDKYVKPTEPVTDYRTAVSGIRPENLKQGEELEVVQKEVAEMLKGRILVGHALHNDLKVLFLDHPKKKIRDTQKYKPFKSQVKSGRPSLRLLSEKILGLQVQQAEHCSIQDAQAAMRLYVMVKKEWESMARDRRPLLTAPDHCSDDA
# B6: BPIFA1 (protein, UniProt Q9NP55 20-256, looked up)
# BPI fold-containing family A …: QFGGLPVPLDQTLPLNVNPALPLSPTGLAGSLTNALSNGLLSGGLLGILENLPLLDILKPGGGTSGGLLGGLLGKVTSVIPGLNNIIDIKVTDPQLLELGLVQSPDGHRLYVTIPLGIKLQVNTPLVGASLLRLAVKLDITAEILAVRDKQERIHLVLGDCTHSPGSLQISLLDGLGPLPIQGLLDSLTGILNKVLPELVQGNVCPLVNEVLRGLDITLVHDIVNMLIHGLQFVIKV
# B7: CAT (protein, UniProt P04040 2-527, looked up)
# Catalase: ADSRDPASDQMQHWKEQRAAQKADVLTTGAGNPVGDKLNVITVGPRGPLLVQDVVFTDEMAHFDRERIPERVVHAKGAGAFGYFEVTHDITKYSKAKVFEHIGKKTPIAVRFSTVAGESGSADTVRDPRGFAVKFYTEDGNWDLVGNNTPIFFIRDPILFPSFIHSQKRNPQTHLKDPDMVWDFWSLRPESLHQVSFLFSDRGIPDGHRHMNGYGSHTFKLVNANGEAVYCKFHYKTDQGIKNLSVEDAARLSQEDPDYGIRDLFNAIATGKYPSWTFYIQVMTFNQAETFPFNPFDLTKVWPHKDYPLIPVGKLVLNRNPVNYFAEVEQIAFDPSNMPPGIEASPDKMLQGRLFAYPDTHRHRLGPNYLHIPVNCPYRARVANYQRDGPMCMQDNQGGAPNYYPNSFGAPEQQPSALEHSIQYSGEVRRFNTANDDNVTQVRAFYVNVLNEEQRKRLCENIAGHLKDAQIFIQKKAVKNFTEVHPDYGSHIQALLDKYNAEKPKNAIHTFVQSGSHLAAREKANL
# B8: TXN (protein, UniProt P10599 2-105, looked up)
# Thioredoxin: VKQIESKTAFQEALDAAGDKLVVVDFSATWCGPCKMIKPFFHSLSEKYSNVIFLEVDVDDCQDVASECEVKCMPTFQFFKKGQKVGEFSGANKEKLEATINELV
# Tested on: BAF complex subunits and histone proteins
# Experiment: Mass spectrometry proteomics of purified HA-SS18 WT and HA-SS18-SSX1 complexes (Tables 5A-5E)
# Set-up: species or system human
# Details: HA-SS18WT_CHR_peptides: protein identified in HA-SS18 WT BAF complex purification from nuclease-treated solubilized chromatin (CHR), HEK-293T
Molecule,Total (total peptides),Unique (unique peptides)
B1,2,2
B2,2,2
B3,2,2
B4,2,2
B5,1,1
B6,2,2
B7,2,2
B8,2,2
